Assay results reported in doi:10.1101/2024.11.12.621593.

Chains of the proteins cited; added tags and fusions are not shown.
UniProt Q92547: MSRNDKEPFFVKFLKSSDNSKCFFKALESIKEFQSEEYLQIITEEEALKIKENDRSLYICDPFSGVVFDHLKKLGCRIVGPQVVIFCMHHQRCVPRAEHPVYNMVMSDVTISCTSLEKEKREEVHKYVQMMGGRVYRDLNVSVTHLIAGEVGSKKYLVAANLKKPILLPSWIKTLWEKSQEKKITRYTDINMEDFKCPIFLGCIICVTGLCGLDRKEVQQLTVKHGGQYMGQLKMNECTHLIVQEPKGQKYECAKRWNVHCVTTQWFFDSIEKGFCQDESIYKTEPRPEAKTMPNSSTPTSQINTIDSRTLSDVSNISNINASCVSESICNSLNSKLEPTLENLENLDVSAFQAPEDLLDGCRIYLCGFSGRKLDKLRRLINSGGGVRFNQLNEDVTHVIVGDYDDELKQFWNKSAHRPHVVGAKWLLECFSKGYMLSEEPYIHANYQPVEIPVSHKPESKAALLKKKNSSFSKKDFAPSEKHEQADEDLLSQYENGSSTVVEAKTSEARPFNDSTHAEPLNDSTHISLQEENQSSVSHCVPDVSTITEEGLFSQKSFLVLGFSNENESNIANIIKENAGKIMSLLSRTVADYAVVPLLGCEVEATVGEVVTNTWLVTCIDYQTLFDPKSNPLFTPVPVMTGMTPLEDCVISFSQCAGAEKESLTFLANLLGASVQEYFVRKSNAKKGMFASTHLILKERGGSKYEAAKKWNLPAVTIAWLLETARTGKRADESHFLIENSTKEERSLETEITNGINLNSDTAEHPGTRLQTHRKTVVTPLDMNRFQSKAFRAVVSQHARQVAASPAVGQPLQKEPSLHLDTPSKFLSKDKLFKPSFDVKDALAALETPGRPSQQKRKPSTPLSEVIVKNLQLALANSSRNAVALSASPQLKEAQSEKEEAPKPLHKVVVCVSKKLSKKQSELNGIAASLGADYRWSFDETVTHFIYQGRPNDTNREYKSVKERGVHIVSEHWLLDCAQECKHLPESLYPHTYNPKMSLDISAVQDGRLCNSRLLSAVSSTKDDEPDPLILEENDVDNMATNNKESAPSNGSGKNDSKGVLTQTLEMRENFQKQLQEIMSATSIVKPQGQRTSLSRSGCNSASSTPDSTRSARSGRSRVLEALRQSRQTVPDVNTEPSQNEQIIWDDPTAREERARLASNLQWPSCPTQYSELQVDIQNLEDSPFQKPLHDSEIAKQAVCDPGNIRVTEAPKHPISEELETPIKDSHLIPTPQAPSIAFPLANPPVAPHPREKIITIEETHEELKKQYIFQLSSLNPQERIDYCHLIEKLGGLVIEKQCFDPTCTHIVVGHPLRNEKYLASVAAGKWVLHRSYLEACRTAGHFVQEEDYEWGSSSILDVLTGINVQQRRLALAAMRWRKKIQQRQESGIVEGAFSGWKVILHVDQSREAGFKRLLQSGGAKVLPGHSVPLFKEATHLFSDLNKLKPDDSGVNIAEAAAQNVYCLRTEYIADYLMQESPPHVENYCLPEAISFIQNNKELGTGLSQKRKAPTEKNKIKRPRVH

B1: EME1 (endogenous) (protein, UniProt Q96AY2 1-570)
chain: MALKKSSPSLDSGDSDSEELPTFAFLKKEPSSTKRRQPEREEKIVVVDISDCEASCPPAPELFSPPVPEIAETVTQTQPVRLLSSESEDEEEFIPLAQRLTCKFLTHKQLSPEDSSSPVKSVLDHQNNEGASCDWKKPFPKIPEVPLHDTPERSAADNKDLILDPCCQLPAYLSTCPGQSSSLAVTKTNSDILPPQKKTKPSQKVQGRGSHGCRQQRQARQKESTLRRQERKNAALVTRMKAQRPEECLKHIIVVLDPVLLQMEGGGQLLGALQTMECRCVIEAQAVPCSVTWRRRAGPSEDREDWVEEPTVLVLLRAEAFVSMIDNGKQGSLDSTMKGKETLQGFVTDITAKTAGKALSLVIVDQEKCFSAQNPPRRGKQGANKQTKKQQQRQPEASIGSMVSRVDAEEALVDLQLHTEAQAQIVQSWKELADFTCAFTKAVAEAPFKKLRDETTFSFCLESDWAGGVKVDLAGRGLALVWRRQIQQLNRVSLEMASAVVNAYPSPQLLVQAYQQCFSDKERQNLLADIQVRRGEGVTSTSRRIGPELSRRIYLQMTTLQPHLSLDSAD
B2: ERCC4/XPF (endogenous) (protein, UniProt Q92889 1-916)
chain: MESGQPARRIAMAPLLEYERQLVLELLDTDGLVVCARGLGADRLLYHFLQLHCHPACLVLVLNTQPAEEEYFINQLKIEGVEHLPRRVTNEITSNSRYEVYTQGGVIFATSRILVVDFLTDRIPSDLITGILVYRAHRIIESCQEAFILRLFRQKNKRGFIKAFTDNAVAFDTGFCHVERVMRNLFVRKLYLWPRFHVAVNSFLEQHKPEVVEIHVSMTPTMLAIQTAILDILNACLKELKCHNPSLEVEDLSLENAIGKPFDKTIRHYLDPLWHQLGAKTKSLVQDLKILRTLLQYLSQYDCVTFLNLLESLRATEKAFGQNSGWLFLDSSTSMFINARARVYHLPDAKMSKKEKISEKMEIKEGEETKKELVLESNPKWEALTEVLKEIEAENKESEALGGPGQVLICASDDRTCSQLRDYITLGAEAFLLRLYRKTFEKDSKAEEVWMKFRKEDSSKRIRKSHKRPKDPQNKERASTKERTLKKKKRKLTLTQMVGKPEELEEEGDVEEGYRREISSSPESCPEEIKHEEFDVNLSSDAAFGILKEPLTIIHPLLGCSDPYALTRVLHEVEPRYVVLYDAELTFVRQLEIYRASRPGKPLRVYFLIYGGSTEEQRYLTALRKEKEAFEKLIREKASMVVPEEREGRDETNLDLVRGTASADVSTDTRKAGGQEQNGTQQSIVVDMREFRSELPSLIHRRGIDIEPVTLEVGDYILTPEMCVERKSISDLIGSLNNGRLYSQCISMSRYYKRPVLLIEFDPSKPFSLTSRGALFQEISSNDISSKLTLLTLHFPRLRILWCPSPHATAELFEELKQSKPQPDAATALAITADSETLPESEKYNPGPQDFLLKMPGVNAKNCRSLMHHVKNIAELAALSQDELTSILGNAANAKQLYDFIHTSFAEVVSKGKGKK
B3: ERCC1 (endogenous) (protein, UniProt P07992 1-297)
chain: MDPGKDKEGVPQPSGPPARKKFVIPLDEDEVPPGVAKPLFRSTQSLPTVDTSAQAAPQTYAEYAISQPLEGAGATCPTGSEPLAGETPNQALKPGAKSNSIIVSPRQRGNPVLKFVRNVPWEFGDVIPDYVLGQSTCALFLSLRYHNLHPDYIHGRLQSLGKNFALRVLLVQVDVKDPQQALKELAKMCILADCTLILAWSPEEAGRYLETYKAYEQKPADLLMEKLEQDFVSRVTECLTTVKSVNKTDSQTLLTTFGSLEQLIAASREDLALCPGLGPQKARRLFDVLHEPFLKVP
B4: MUS81 (endogenous) (protein, UniProt Q96NY9 1-551)
chain: MAAPVRLGRKRPLPACPNPLFVRWLTEWRDEATRSRRRTRFVFQKALRSLRRYPLPLRSGKEAKILQHFGDGLCRMLDERLQRHRTSGGDHAPDSPSGENSPAPQGRLAEVQDSSMPVPAQPKAGGSGSYWPARHSGARVILLVLYREHLNPNGHHFLTKEELLQRCAQKSPRVAPGSARPWPALRSLLHRNLVLRTHQPARYSLTPEGLELAQKLAESEGLSLLNVGIGPKEPPGEETAVPGAASAELASEAGVQQQPLELRPGEYRVLLCVDIGETRGGGHRPELLRELQRLHVTHTVRKLHVGDFVWVAQETNPRDPANPGELVLDHIVERKRLDDLCSSIIDGRFREQKFRLKRCGLERRVYLVEEHGSVHNLSLPESTLLQAVTNTQVIDGFFVKRTADIKESAAYLALLTRGLQRLYQGHTLRSRPWGTPGNPESGAMTSPNPLCSLLTFSDFNAGAIKNKAQSVREVFARQLMQVRGVSGEKAAALVDRYSTPASLLAAYDACATPKEQETLLSTIKCGRLQRNLGPALSRTLSQLYCSYGPLT

Each binder was assayed against TOPBP1 (endogenous) (human (endogenous in HEK293TN)) (UniProt Q92547) (assay: affinity purification with mass spectrometry).
In the case of B1, the binding is reported as “binds”.
With B2 the binding was “binds”.

Biological target: TOPBP1 (endogenous) (human (endogenous in HEK293TN)) (UniProt Q92547)
Test: affinity purification with mass spectrometry
Remark: another data set of the same source
With B1 the binding was “binds”.
In the case of B2, the binding is reported as “binds”.
For B3, the binding was “binds”.
For B4, the binding was “binds”.

Results are given in words; binding and its absence hold for the method and conditions named. In cells and extracts the contact can be indirect. Here binding means that the protein was enriched with, or labelled near, the bait; the list need not be complete.
